From PMC11219949
The exact form of at least one protein or probe is not confirmed. Where a protein sequence is shown, tags need not be part of it.

System: T1, AUREO1c (Phaeodactylum tricornutum)
T1 sequence (looked up, limits assumed): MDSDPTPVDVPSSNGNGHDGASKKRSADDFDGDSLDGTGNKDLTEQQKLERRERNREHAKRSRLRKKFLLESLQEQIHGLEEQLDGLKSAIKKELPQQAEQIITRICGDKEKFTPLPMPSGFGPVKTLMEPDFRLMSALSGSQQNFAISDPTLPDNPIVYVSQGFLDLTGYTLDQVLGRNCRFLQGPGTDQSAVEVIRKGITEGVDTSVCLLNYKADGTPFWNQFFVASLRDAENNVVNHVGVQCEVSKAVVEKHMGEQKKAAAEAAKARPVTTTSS
Test: EMSA
Conditions: excess unlabeled probe (50-200x) reverses shift, LightShift Chemiluminescent EMSA Kit (Thermo 20148) per manufacturer, temperature and light state not stated, recombinant protein, protein details: N-terminal 6xHis (pET28a), probe letters rebuilt from the primers and the genome

Sequence	binding result (label: 5' biotin on HZ-1630 strand)	binding result (label: 5' biotin on HZ-1628 strand)
CTAACCTGTAATACTAACGTGATGTATGAATGAATCGTGTATGACGTTCCGGTGTCGAGTCACTATCATACCATTGGTGATATGATATCACGTGAGATATCACTGATATCTCACGTCAATAGACAAGCTGCTTTACAATGGGTGAAAACAACCACCACACGAAACAAGTTCCTGTAACTCTAAATATTGATTGTAATTGGTGAAGAAAGCATTTTCCTGACTGTGGGTACATGGAATACATCCTTTTTTGATAAATGTACAAACAAAGACTCATTTACTGTTAGTCATAGTCAAGCGCAGTGCGTACTTGACTGTGAAAAAATCGAGCTCTGAAAGGGTTAAAGTTCAAGAGGTACAAGGTAGCTGGTTTGCGTGTGTCAGGGCATGGCCTACCTGACTCATGCATTCCGCGTGCCACAAAAACTCACAGTCAGAGAGCCACTCCGAGAATCCTCCAGAATTTCGTGGAAGATTTTTTCGTCATCTTTTTCCAGTTCTCCGCATAGCTCTCATAGTTTCGTTTGCGTTCTTCGTCAACACACCGCAAAAAGATATACGTCCAATTCCAGCCCACTACGTACA (double strand) [LHCX2 promoter probe]	binds	
CAATTAGTGCTGACTAACAGCGTATACTGTCAACAGAGTCCGATGACTGGCTGACAATGACTTGGAACGCCAATTTGCATTGATAGTGACTATGAGTTCCAAGCTTCGATCGGGCCGAACCAAGTAGAAAGATACATGTAAACGACTACCTATATACTGGCTGATTCAATCCGACCAGCAGAGTAACCCCATCTGGTGTCGATTCCTCTGCGAATACTCTAGAGGTATCACGGTATGTATATAGTATATAGTACTCGTCGCCCACGGTTGTCTTCGATTCCCATCCATCCTGTTACGGACAGGAACCAGACACGACACGGCCCTACCTCTCCGTATCCGATCCTTGCCATCACTTTTGGGGTACTTTCGAAAAAGACTGATTCATAGTCAAATGCCTTCTGACGGATCCAGAGGGTACGCAGAGTTCTGCTGACGAACTGTCTCGTACACTCATTCTTGGTTGTGGAAATCATCTCCCTACACACTACGCTCCAAAATGATAACTCTGCACAATTCACACAATATCCTAAACAGTACACTTGCGATCGCACTTGCAACCCACGTACCACCACCAGTACCAAACACAATCATTACACC (double strand) [LHCX3 promoter probe]		binds
